Results reported in patent US20090099195A1 (ASTRAZENECA AB, priority 2007, published 2009).
Some of these results come from one statement about several compounds together.

target: T1, P2X3 receptors (UniProt P56373); assay: FLIPR antagonist assay, receptor or clone not stated (less preferred compounds); details: compounds also tested
T1 sequence (P56373 1-397): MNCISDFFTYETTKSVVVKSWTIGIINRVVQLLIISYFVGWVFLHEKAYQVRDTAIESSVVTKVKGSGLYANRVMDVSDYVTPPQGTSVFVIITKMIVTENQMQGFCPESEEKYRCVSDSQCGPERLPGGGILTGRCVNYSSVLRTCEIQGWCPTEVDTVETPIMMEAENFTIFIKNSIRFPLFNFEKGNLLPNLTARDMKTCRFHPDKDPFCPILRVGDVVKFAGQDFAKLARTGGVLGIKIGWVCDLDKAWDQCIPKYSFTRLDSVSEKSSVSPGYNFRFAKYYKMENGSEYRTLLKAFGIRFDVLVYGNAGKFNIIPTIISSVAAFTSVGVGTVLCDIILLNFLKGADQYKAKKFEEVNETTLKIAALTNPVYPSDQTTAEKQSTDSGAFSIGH

IC50, > 3.3 µM:
CC(=O)N1CCN(c2nc3c(c(N4CCCC4c4ccncc4)n2)CN(C(C)C)C3=O)CC1 (stereo not shown) [2-(4-acetylpiperazin-1-yl)-6-(1-methylethyl)-4-(2-pyridin-4-ylpyrrolidin-1-yl)-5,6-dihydro-7H-pyrrolo[3,4-d]pyrimidin-7-one]
CC(=O)N1CCN(c2nc3c(c(N4CCCC4Cc4ccc(C#N)cc4)n2)CN(C(C)C)C3=O)CC1 (stereo not shown) [4-({1-[2-(4-acetylpiperazin-1-yl)-6-(1-methylethyl)-7-oxo-6,7-dihydro-5H-pyrrolo[3,4-d]pyrimidin-4-yl]pyrrolidin-2-yl}methyl)benzonitrile]
CC(C)N1Cc2c(NCc3cnc4ccccc4c3)nc(N[C@H]3CCC(=O)NC3)nc2C1=O [6-(1-methylethyl)-2-{[(3S)-6-oxopiperidin-3-yl]amino}-4-[(quinolin-3-ylmethyl)amino]-5,6-dihydro-7H-pyrrolo[3,4-d]pyrimidin-7-one]
CC(C)N1Cc2c(NCc3cnc4ccccc4c3)nc(NCC(F)F)nc2C1=O [2-[(2,2-difluoroethyl)amino]-6-(1-methylethyl)-4-[(quinolin-3-ylmethyl)amino]-5,6-dihydro-7H-pyrrolo[3,4-d]pyrimidin-7-one]
CC(C)N1Cc2c(Nc3ccc(N4CCOCC4)cc3)nc(N3CCOCC3)nc2C1=O [6-(1-methylethyl)-2-morpholin-4-yl-4-[(4-morpholin-4-ylphenyl)amino]-5,6-dihydro-7H-pyrrolo[3,4-d]pyrimidin-7-one]
CC(=O)N1CCN(c2nc(NC(CC(=O)O)c3ccc(OC(C)C)cc3)c3c(n2)C(=O)N(C(C)C)C3)CC1 (stereo not shown) [3-{[2-(4-acetylpiperazin-1-yl)-6-(1-methylethyl)-7-oxo-6,7-dihydro-5H-pyrrolo[3,4-d]pyrimidin-4-yl]amino}-3-[4-(1-methylethoxy)phenyl]propanoic acid]
CC(C)N1Cc2c(NCc3cnc4ccccc4c3)nc(NCC3CCS(=O)(=O)C3)nc2C1=O (stereo not shown) [2-{[(1,1-dioxidotetrahydrothiophen-3-yl)methyl]amino}-6-(1-methylethyl)-4-[(quinolin-3-ylmethyl)amino]-5,6-dihydro-7H-pyrrolo[3,4-d]pyrimidin-7-one]
CC(C)N1Cc2c(NCc3cc4ccccc4cn3)nc(N3CCN(C(=O)OC(C)(C)C)[C@H](C)C3)nc2C1=O [tert-butyl (2R)-4-{4-[(isoquinolin-3-ylmethyl)amino]-6-(1-methylethyl)-7-oxo-6,7-dihydro-5H-pyrrolo[3,4-d]pyrimidin-2-yl}-2-methylpiperazine-1-carboxylate]
CC(C)N1Cc2c(Nc3ccc(-c4ncco4)cc3)nc(N3CCOCC3)nc2C1=O [6-(1-methylethyl)-2-morpholin-4-yl-4-{[4-(1,3-oxazol-2-yl)phenyl]amino}-5,6-dihydro-7H-pyrrolo[3,4-d]pyrimidin-7-one]
O=C1c2nc(N3CCOCC3)nc(NC(c3ccccc3)c3ccccc3)c2CN1C1CCOCC1 [4-[(diphenylmethyl)amino]-2-morpholin-4-yl-6-(tetrahydro-2H-pyran-4-yl)-5,6-dihydro-7H-pyrrolo[3,4-d]pyrimidin-7-one]
Cc1ccc(CCNc2nc(NCCN(C)C)nc3c2CN(C(C)C)C3=O)c(C)c1 [2-{[2-(dimethylamino)ethyl]amino}-4-{[2-(2,4-dimethylphenyl)ethyl]amino}-6-(1-methylethyl)-5,6-dihydro-7H-pyrrolo[3,4-d]pyrimidin-7-one]
CC(=O)N1CCN(c2nc(N[C@H](C)c3ccccc3F)c3c(n2)C(=O)N(C(C)C)C3)CC1 [2-(4-acetylpiperazin-1-yl)-4-{[(1R)-1-(2-fluorophenyl)ethyl]amino}-6-(1-methylethyl)-5,6-dihydro-7H-pyrrolo[3,4-d]pyrimidin-7-one]
CC(=O)N1CCN(c2nc(NCc3c[nH]c4ccccc34)c3c(n2)C(=O)N(C(C)C)C3)CC1 [2-(4-acetylpiperazin-1-yl)-4-[(1H-indol-3-ylmethyl)amino]-6-(1-methylethyl)-5,6-dihydro-7H-pyrrolo[3,4-d]pyrimidin-7-one]
CC(C)N1Cc2c(NCc3ccccn3)nc(N3CCOCC3)nc2C1=O [6-(1-methylethyl)-2-morpholin-4-yl-4-[(pyridin-2-ylmethyl)amino]-5,6-dihydro-7H-pyrrolo[3,4-d]pyrimidin-7-one]
COc1ccccc1Nc1nc(N2CCOCC2)nc2c1CN(C(C)C)C2=O [4-[(2-methoxyphenyl)amino]-6-(1-methylethyl)-2-morpholin-4-yl-5,6-dihydro-7H-pyrrolo[3,4-d]pyrimidin-7-one]
CC(=O)N1CCN(c2nc(NC(C(N)=O)c3ccccc3)c3c(n2)C(=O)N(C(C)C)C3)CC1 (stereo not shown) [2-{[2-(4-acetylpiperazin-1-yl)-6-(1-methylethyl)-7-oxo-6,7-dihydro-5H-pyrrolo[3,4-d]pyrimidin-4-yl]amino}-2-phenylacetamide]
CC(C)N1Cc2c(NCc3cnc4ccccc4c3)nc(NCCN3CCCC3=O)nc2C1=O [6-(1-methylethyl)-2-{[2-(2-oxopyrrolidin-1-yl)ethyl]amino}-4-[(quinolin-3-ylmethyl)amino]-5,6-dihydro-7H-pyrrolo[3,4-d]pyrimidin-7-one]
CC(C)N1Cc2c(Nc3ccc(Cl)cc3)nc(N3CCC(C4NC(=O)NC4=O)CC3)nc2C1=O (stereo not shown) [5-(1-{4-[(4-chlorophenyl)amino]-6-(1-methylethyl)-7-oxo-6,7-dihydro-5H-pyrrolo[3,4-d]pyrimidin-2-yl}piperidin-4-yl)imidazolidine-2,4-dione]
CC(=O)N1CCN(c2nc(NCc3cc(C)nn3C)c3c(n2)C(=O)N(C(C)C)C3)CC1 [2-(4-acetylpiperazin-1-yl)-4-{[(1,3-dimethyl-1H-pyrazol-5-yl)methyl]amino}-6-(1-methylethyl)-5,6-dihydro-7H-pyrrolo[3,4-d]pyrimidin-7-one]
CC(C)N1Cc2c(NCCO)nc(N3CCOCC3)nc2C1=O [4-[(2-hydroxyethyl)amino]-6-(1-methylethyl)-2-morpholin-4-yl-5,6-dihydro-7H-pyrrolo[3,4-d]pyrimidin-7-one]
CC(C)N1Cc2c(NCc3cnc4ccccc4c3)nc(N3CCC(C(=O)O)CC3)nc2C1=O [1-{6-(1-methylethyl)-7-oxo-4-[(quinolin-3-ylmethyl)amino]-6,7-dihydro-5H-pyrrolo[3,4-d]pyrimidin-2-yl}piperidine-4-carboxylic acid]
CC(C)N1Cc2c(NCC(c3ccccc3)c3ccccc3)nc(NCCN)nc2C1=O [2-[(2-aminoethyl)amino]-4-[(2,2-diphenylethyl)amino]-6-(1-methylethyl)-5,6-dihydro-7H-pyrrolo[3,4-d]pyrimidin-7-one]
CC(=O)N1CCN(c2nc3c(c(N4CCCC4C(=O)N4CCCC4)n2)CN(C(C)C)C3=O)CC1 (stereo not shown) [2-(4-acetylpiperazin-1-yl)-6-(1-methylethyl)-4-[2-(pyrrolidin-1-ylcarbonyl)pyrrolidin-1-yl]-5,6-dihydro-7H-pyrrolo[3,4-d]pyrimidin-7-one]
CC(=O)N1CCN(c2nc3c(c(N4CCCC4Cc4cnc5ccccc5c4)n2)CN(C(C)C)C3=O)CC1 (stereo not shown) [2-(4-acetylpiperazin-1-yl)-6-(1-methylethyl)-4-[2-(quinolin-3-ylmethyl)pyrrolidin-1-yl]-5,6-dihydro-7H-pyrrolo[3,4-d]pyrimidin-7-one]
CC(=O)N1CCN(c2nc(NC3CCc4cc(F)ccc4C3)c3c(n2)C(=O)N(C(C)C)C3)CC1 (stereo not shown) [2-(4-acetylpiperazin-1-yl)-4-[(6-fluoro-1,2,3,4-tetrahydronaphthalen-2-yl)amino]-6-(1-methylethyl)-5,6-dihydro-7H-pyrrolo[3,4-d]pyrimidin-7-one]
CC(C)N1Cc2c(NCc3cnc4ccccc4c3)nc(N3CCN(CC(=O)N4CCOCC4)CC3)nc2C1=O [6-(1-methylethyl)-2-[4-(2-morpholin-4-yl-2-oxoethyl)piperazin-1-yl]-4-[(quinolin-3-ylmethyl)amino]-5,6-dihydro-7H-pyrrolo[3,4-d]pyrimidin-7-one]
CC(C)N1Cc2c(NCc3cnc4ccccc4c3)nc(NCCN(C)C)nc2C1=O [2-{[2-(dimethylamino)ethyl]amino}-6-(1-methylethyl)-4-[(quinolin-3-ylmethyl)amino]-5,6-dihydro-7H-pyrrolo[3,4-d]pyrimidin-7-one]
CC(C)N1Cc2c(NCc3cc4ccccc4cn3)nc(N3CCN(C(=O)OC(C)(C)C)[C@@H](C)C3)nc2C1=O [tert-butyl (2S)-4-{4-[(isoquinolin-3-ylmethyl)amino]-6-(1-methylethyl)-7-oxo-6,7-dihydro-5H-pyrrolo[3,4-d]pyrimidin-2-yl}-2-methylpiperazine-1-carboxylate]
CC(=O)NC1CCN(c2nc(NCc3nc(-c4ccccc4)no3)c3c(n2)C(=O)N(C(C)C)C3)C1 (stereo not shown) [N-{1-[6-(1-methylethyl)-7-oxo-4-{[(3-phenyl-1,2,4-oxadiazol-5-yl)methyl]amino}-6,7-dihydro-5H-pyrrolo[3,4-d]pyrimidin-2-yl]pyrrolidin-3-yl}acetamide]
CC(C)N1Cc2c(NCc3cnc4ccccc4c3)nc(N3CCN(CCC#N)CC3)nc2C1=O [3-(4-{6-(1-methylethyl)-7-oxo-4-[(quinolin-3-ylmethyl)amino]-6,7-dihydro-5H-pyrrolo[3,4-d]pyrimidin-2-yl}piperazin-1-yl)propanenitrile]
CC(=O)N1CCN(c2nc3c(c(N(C)Cc4cc(C)[nH]n4)n2)CN(C(C)C)C3=O)CC1 [2-(4-acetylpiperazin-1-yl)-6-(1-methylethyl)-4-{methyl[(5-methyl-1H-pyrazol-3-yl)methyl]amino}-5,6-dihydro-7H-pyrrolo[3,4-d]pyrimidin-7-one]
